Values from PubChem BioAssay AID720505 (Drosophila RNAi Screening Center, 2013).

- Purpose: 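Knock-downs that reduce calcium influx once internal stores are emptied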 (primary screen)
- Cell system: Drosophila S2R+ cells
- Reagents: long dsRNA against Drosophila genes
- Treatment: thapsigargin (2 µM) in calcium-free buffer to empty internal stores, then 2 mM calcium added back
- Detection: 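Stores emptied by 2 µM thapsigargin without calcium, then 2 mM calcium re-added; fluo-4 fluorescence followed by FLIPR in 384-well plates, per-well averaged endpoint, raw; two screen passes, some wells retested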
- Direction: calcium signal: higher = more calcium entry after store depletion
- Hit rule: 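About 1500 genes called as lowering calcium entry, by varying amounts, judged against per-plate control wells with STIM1 as positive and Rho1 as negative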
- Meaning of the calls: active = called as lowering calcium entry; inactive = not called
The deposit covers about 20,000 reagents; shown is an unselected part of those with a known target gene and a result. Over the whole deposit, about 2,100 (10%) got an active call. 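Raw plate signals without normalisation; calls rest on control-based scores that were not deposited; replicate 2 separates called from uncalled poorly.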 The record does not give: the amount of reagent, the time to read-out.

Depletion of CG40498 [DRSC07786] gave: calcium signal, replicate 1 = 112; calcium signal, replicate 2 = 98.9; inactive.
tio [DRSC03739] gave calcium signal, replicate 1 = 139; calcium signal, replicate 2 = 135; inactive.
For dUTPase [DRSC01998] the deposit lists calcium signal, replicate 1 = 115; calcium signal, replicate 2 = 102; inactive.
Silencing of Ocho [DRSC11239] came out at: calcium signal, replicate 1 = 75.1; calcium signal, replicate 2 = 137; inactive.
Depletion of Est-P [DRSC11163] gave: calcium signal, replicate 1 = 78; calcium signal, replicate 2 = 82.6; active.

A run of entries of the results above:
dUTPase [DRSC01998] — calcium signal, replicate 1 = 115; calcium signal, replicate 2 = 102; outcome = inactive
Ocho [DRSC11239] — calcium signal, replicate 1 = 75.1; calcium signal, replicate 2 = 137; outcome = inactive

Continued:
After knock-down of CG33303 [DRSC02848], the record shows calcium signal, replicate 1 = 157; calcium signal, replicate 2 = 118; inactive.
CG14455 [DRSC11712] scored calcium signal, replicate 1 = 69.5; calcium signal, replicate 2 = 106; active.
CG10470 [DRSC02061] scored calcium signal, replicate 1 = 178; calcium signal, replicate 2 = 76.6; inactive.
Vps51 [DRSC06519] gave calcium signal, replicate 1 = 67.4; calcium signal, replicate 2 = 128; active.
For Acf [DRSC14101], the entry reads calcium signal, replicate 1 = 80.8; calcium signal, replicate 2 = 99; inactive.
For ND-42 [DRSC16754] the deposit lists calcium signal, replicate 1 = 112; calcium signal, replicate 2 = 191; inactive.
For Syx16 [DRSC20507] the deposit lists calcium signal, replicate 1 = 144; calcium signal, replicate 2 = 132; inactive.
